Data: US11964000B2, “Cancer treatment methods using nanofiber stabilized growth factors” (Northwestern University, priority 2020, dated 2024)
Not every detail of the peptide structures is certain; ends, links or a residue may be inferred. At least one structure is not confirmed: it was looked up by name or label, or the drawing left a doubt. Residues, ends and D or L forms follow the SMILES beside them. Groups on a side chain read outwards from the residue. *: point of attachment. X1 = CC(=O)N[C@H]1[C@H](OCCn2cc(CCC(=O)*)nn2)O[C@H](COS(=O)(=O)O)[C@@H](OS(=O)(=O)O)[C@@H]1OS(=O)(=O)O; Palmitoyl = CCCCCCCCCCCCCCCC(=O)*; AEEA = NCCOCCOCC(=O)O

Experiments:
pSMAD1/5/8 = assay: Western blot of pSMAD1/5/8 in HGG cells treated with PAs with and without BMP4; assay type: cell-based, human; details: PA 25 μM with BMP4 5 ng/ml, 24h and 72h; KNS42 and CHLA200 cells
Excerpt: (§1) FIG. 5. Self-assembled peptide amphiphile nanostructures extend and enhance BMP4 effects in pediatric high grade glioma cells in vitro. (FIG. 5A) Western blots show PAs enhance BMP4 function by activating its downstream target pSMAD1/5/8 in pediatric glioma KNS42 (FIG. 5B) and CHLA200 cells. (FIG. 5C) Increased therapeutic efficacy in response to carboplatin treatment.
(§2) To investigate biological effects of PA-BMP4, HGG responses to different types of PAs, both with and without bound BMP4, were analyzed. HGG cells were treated with BMP4 (5 ng/ml), GlncPA (25 μM) and GlncPA (25 μM)-BMP4 (5 ng/ml), E2-PA (25 μM) and E2-PA (25 μM)-BMP4 (5 ng/ml) for 24h and 72h.

HGG cells = assay: HGG cell chemosensitivity (carboplatin) with PA-bound BMP4; assay type: cell-based, human; details: PA 25 μM with BMP4 5 ng/ml; response to carboplatin treatment
Excerpt: as §1, §2

[1] = Viscosity and gel storage modulus of PA nanofiber solutions and implants; assay type: physicochemical

**Q.** What does the source list for `CCCCCCCCCCCCCCCC(=O)N[C@H](C(=O)N[C@H](C(=O)N[C@@H](C)C(=O)N[C@@H](C)C(=O)N[C@@H](CCC(=O)O)C(=O)N[C@@H](CCC(=O)O)C(=O)N[C@@H](CCCCNC(=O)COCCOCCNC(=O)CCc1cn(CCO[C@@H]2O[C@H](COS(=O)(=O)O)[C@@H](OS(=O)(=O)O)[C@H](OS(=O)(=O)O)[C@H]2NC(C)=O)nn1)C(N)=O)C(C)C)C(C)C` [GlncPA] (Palmitoyl-VVAAEEK([AEEA-X1])-NH2)?
**A.** BMP4 activity as phosphorylation of SMAD1/5/8 (pSMAD1/5/8): enhance BMP4 activity; HGG cell chemosensitivity (HGG cells): increased HGG cell chemosensitivity; viscosity of PA nanofiber solution [1]: lower viscosity; gel storage modulus (G′) ([1]; nanofiber implants treated with 2.5 mM CaCl2 and 150 mM NaCl): lower
